Test results as given in PubChem BioAssay AID493014 (National Center for Advancing Translational Sciences (NCATS), 2011).
This is one part of the list. The main result of the screen is listed elsewhere. These columns were measured beside it and carry no call. Most of these compounds were active or inconclusive in the main read-out, so they are no random draw. Potencies come from curve fits of mixed quality, noted in brackets.

Assay: qHTS Assay to Find Inhibitors of Chronic Active B-Cell Receptor Signaling
Details: ABC-DLBCL IkBa-CBG/CBR reporter, luminescence ratio (green luciferase fused to IkBa over red control in TMD8 lymphoma cells), 4 h
Summary of the method: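 TMD8 human ABC-DLBCL cells with doxycycline-inducible IκBα–green luciferase fusion and unfused red luciferase, in 0.5% FBS medium; compounds up to 46 uM, 4 h at 37C. Green/red luminescence ratio, filter-overlap corrected, fitted to concentration-response curves.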

[1] = measured here: CBR red luminescence, cell number
[2] = measured here: IkBa-CBG green luminescence

Compound | AC50 [1] | AC50 [2]
Cc1ccc(S(=O)(=O)N(Cc2ccc(Cl)cc2)c2ccccc2C(=O)NCc2cccnc2)cc1 | 29.1 µM [falling, single point] | 32.6 µM [rising, partial curve, poor fit]
COc1ccc(-c2nc3cc([N+](=O)[O-])ccc3o2)cc1OC | 0.112 µM [rising, full curve, poor fit] | 
O=C(c1ccc(-c2ccccc2)cc1)N1CCC(C(=O)N2CCCC2)CC1 | 23.1 µM [rising, partial curve, poor fit] | 
Cc1ccc(NC(=O)COC(=O)c2ccc(F)cc2Cl)c(Br)c1 | 14.1 µM [rising, partial curve, poor fit] | 
Cc1c(CN(C)C(=O)/C=C/c2ccc([N+](=O)[O-])cc2)cnn1C | 6.51 µM [rising, partial curve, poor fit] | 
Cc1ccc(C(=O)NCC(=O)OCCOc2ccccc2Cl)cc1 | 5.17 µM [rising, full curve] | 
O=C(c1cccnc1)C1Cc2ccccc2C1=O (configuration not stated) | 3.16 µM [rising, partial curve, poor fit] | 
COc1ccc2sc(NC(=O)CC(C)C)nc2c1 | 14.1 µM [falling, partial curve] | 
COc1cccc(-c2nc(N3CCN(Cc4ccccc4)CC3)c3ccccc3n2)c1O | 35.5 µM [falling, partial curve, poor fit] | 
Cc1c(C(=O)NCC2COc3ccccc3O2)oc2ccc(S(=O)(=O)N(C)C3CCCCC3)cc12 (configuration not stated) | 29.1 µM [rising, single point] | 
CC(C)NC(=O)c1ccc(OC2CSC2)cc1 | 6.31 µM [rising, single point] | 
Cc1ccc(/C=C/C(=O)N2CCc3ccccc32)o1 | 0.231 µM [rising, full curve, poor fit] | 
CCn1c(=O)cc(SCC(=O)N2CCN(c3ccccn3)CC2)c2ccccc21 |  | 20.6 µM [falling, partial curve, poor fit]
COc1cccc(NC(=O)CN(C)C(=O)c2cn(-c3ccccc3)nc2-c2cccnc2)c1 | 0.00461 µM [rising, full curve, poor fit] | 
CCn1c(O)c(/C=C2\C=Nc3ccccc32)sc1=O | 1.78 µM [rising, full curve] | 
O=C(O)c1ccc(N2C(=O)/C(=C/C=C/c3ccccc3)SC2=S)cc1 | 3.16 µM [falling, full curve] | 
Cc1cc(CNCc2cn(C)nc2-c2ccc(Oc3ccccc3)cc2)on1 | 15.8 µM [rising, partial curve, poor fit] | 
COCCCNC(=O)Cn1nnc(-c2ccc(NC(=O)c3ccccc3OC)cc2)n1 | 6.31 µM [falling, partial curve, poor fit] | 
COc1ccc(Cc2cc(NCc3ccccc3)c3ncn(C(C)C)c3c2)cc1 | 29.1 µM [falling, single point] | 
C=CCOC(=O)C1=C[C@@H](c2ccc(Br)cc2)[C@H](CCCO)[C@@H](OCC)O1 | 0.1 µM [rising, full curve, poor fit] | 
COC(=O)Cn1c(=NC(=O)c2cccc(OC)c2)sc2cc(OC)ccc21 | 4.11 µM [falling, full curve] | 

Compound | AC50 [1] | AC50 [2]
O=C(CN1CCOCC1)Nc1nc(-c2ccccc2)cs1 | 12.6 µM [falling, single point] | 
CCCCNS(=O)(=O)c1ccc2nc(-c3cccnc3)cc(C(=O)NC3CCCC3)c2c1 | 1.12 µM [rising, partial curve, poor fit] | 
O=c1cc(-c2ccccc2Cl)oc2c(NS(=O)(=O)c3ccccc3OC(F)(F)F)ccc(O)c12 | 35.5 µM [falling, single point] | 
CCOC(=O)c1sc(NC(=O)Nc2cccc(Cl)c2)cc1C | 29.1 µM [falling, single point] | 
CNCCCC1Sc2ccccc2Oc2ccccc21 (configuration not stated) | 10.3 µM [falling, partial curve, poor fit] | 
CCOC(=O)Cn1c(=O)c(C#N)cn(C(C)C)c1=O | 11.2 µM [rising, partial curve, poor fit] | 
COc1ccc(CN(CC(=O)NCC2CCCO2)C(=O)CCC(=O)Nc2nccs2)cc1 (configuration not stated) | 1.41 µM [rising, full curve, poor fit] | 
COc1cccc(C(=O)Nc2ccc(F)cc2F)c1 | 23.1 µM [falling, partial curve, poor fit] | 
CCCCN1C(=O)CC(C(=O)OCC)=C1C | 5.62 µM [falling, single point] | 
CC(=O)c1c(C)[nH]c(C(=O)CN2C(=O)NC(C)(c3ccc4c(c3)OCO4)C2=O)c1C (configuration not stated) | 11.2 µM [falling, partial curve, poor fit] | 
Cc1ccc(-c2csc(N3CCN(c4cc5c(cc4Cl)nc(-c4ccncc4)n5CCOCCO)CC3)n2)cc1 | 3.16 µM [falling, partial curve, poor fit] | 
Cc1ccc(C)c(OCCOCCN2CC(C)OC(C)C2)c1C (configuration not stated) | 29.1 µM [rising, single point] | 
C=CCn1c(SCC(=O)N2CCN(c3ccccc3)CC2)nnc1-c1ccco1 | 6.51 µM [rising, full curve, poor fit] | 
CCOC(=O)/C(C#N)=C/NC(=O)NC(C)(C)C | 6.51 µM [falling, partial curve, poor fit] | 
O=C(CC(=O)c1ccccc1)Nc1cccnc1 | 18.4 µM [falling, partial curve] | 
CC(C)(C)n1nc2c(c1NC(=O)Cc1cccs1)CSC2 | 20.6 µM [rising, single point] | 
O=C(/C=C/Nc1ccc(F)c(F)c1)c1ccc(Br)cc1 | 8.2 µM [falling, partial curve] | 
CCN(CC)Cc1cc2[nH]c3c4ccc(Cl)cc4ncc3c2cc1OC | 8.91 µM [falling, partial curve, poor fit] | 
N#CCn1c(C2CCCCC2)nc2ccccc2c1=O | 0.631 µM [rising, full curve, poor fit] | 7.94 µM [falling, partial curve, poor fit]
COc1cc(OC)cc(C(=O)NC(=S)Nc2nc(-c3cc4ccccc4o3)cs2)c1 | 0.112 µM [rising, full curve, poor fit] | 
Cc1ccc(O)c(CNc2ccc(S(=O)(=O)Nc3nccs3)cc2)c1 | 0.708 µM [rising, partial curve, poor fit] | 

Compound | AC50 [1] | AC50 [2]
O=C(N1CCCC1)C(F)(F)Oc1ccc(F)cc1 | 25.1 µM [rising, single point] | 
Cc1[nH]n(-c2ccccc2)c(=O)c1/C=N/NC(=O)c1cccc(F)c1 | 5.01 µM [falling, full curve] | 
CCNC(=O)N(C)C[C@H]1N[C@@](C)(C(=O)OC)[C@H]2C(=O)N(C)C(=O)[C@@H]12 | 25.9 µM [rising, single point] | 
C=CC(=O)N=c1sc2ccccc2n1-c1ccccc1 | 11.2 µM [falling, partial curve] | 17.8 µM [rising, single point]
COc1ccc(OCc2nnc(SCC(=O)Nc3ccccc3Cl)o2)cc1 | 3.55 µM [falling, single point] | 
Cc1ccccc1C(=O)OC1OC(=O)C(Cl)=C1N1CCOCC1 (configuration not stated) | 16.4 µM [falling, partial curve, poor fit] | 
CCOC(=O)COc1ccc2cc(C(=O)OCC)c(=O)oc2c1 | 35.5 µM [rising, single point] | 
C/C(=N\NC(=O)CNc1cccc(C(F)(F)F)c1)c1cccc(Br)c1 |  | 16.4 µM [rising, partial curve, poor fit]
Cc1ccc(NC(=O)N2CCc3ccccc3C2)cc1C | 11.2 µM [falling, single point] | 
NC(=O)c1ccc(NC(=O)c2cccc(Oc3ccccc3)c2)cc1 | 2 µM [falling, full curve] | 
CCCN1CN=C(Nc2nc3ccccc3o2)NC1 | 6.31 µM [rising, single point] | 
O=C(Nc1cccc(Br)c1)c1cccc(OC(=S)N2CCOCC2)c1 | 17.8 µM [falling, single point] | 
Brc1cccc(CNc2nc3ccccc3n2CCN2CCOCC2)c1 | 17.8 µM [falling, single point] | 
COc1ccc(/C=N/NC(=O)c2ccoc2C)cc1COc1c(C)cccc1C | 12.6 µM [falling, partial curve, poor fit] | 
COc1c(C)cccc1C(=O)Nc1ccc(OCC(=O)N2CCOCC2)cc1C | 0.562 µM [falling, full curve] | 
COc1ccc(Cc2nnc(SCC(=O)N(C)CC(=O)Nc3ccc(C)cc3)o2)cc1 | 29.1 µM [rising, single point] | 
Cc1ccc(S(=O)(=O)N2CCN(C(=O)Cn3nc(C)c([N+](=O)[O-])c3C)CC2)c(C)c1 | 15.8 µM [falling, single point] | 
C=C(C)C(=O)N1CC2(CC(c3cccc(NC(=O)c4ccccc4)c3)=NO2)C[C@@H]1C(N)=O (some centres not stated) | 10 µM [falling, partial curve] | 
Cc1ccc2[nH]c3nc(NN)nnc3c2c1 | 28.2 µM [falling, single point] | 
COc1cc([N+](=O)[O-])ccc1N/C=C/C(=O)c1cccs1 | 7.08 µM [falling, partial curve, poor fit] | 
NC(=S)N/N=C/c1ccc(-c2ccc(Cl)c(Cl)c2)o1 | 20.6 µM [falling, partial curve] | 20.6 µM [falling, single point]

In the list so far, these have a cyano group.
Compound | AC50 [1] | AC50 [2]
CCOC(=O)Cn1c(=O)c(C#N)cn(C(C)C)c1=O | 11.2 µM [rising, partial curve, poor fit] | 
CCOC(=O)/C(C#N)=C/NC(=O)NC(C)(C)C | 6.51 µM [falling, partial curve, poor fit] | 
N#CCn1c(C2CCCCC2)nc2ccccc2c1=O | 0.631 µM [rising, full curve, poor fit] | 7.94 µM [falling, partial curve, poor fit]

Quoted at random: 2 records from the list.
Compound | AC50 [1] | AC50 [2]
O=C(Nc1cccc(Br)c1)c1cccc(OC(=S)N2CCOCC2)c1 | 17.8 µM [falling, single point] | 
O=C(N1CCCC1)C(F)(F)Oc1ccc(F)cc1 | 25.1 µM [rising, single point] | 
